According to PubChem BioAssay AID1347075 (National Center for Advancing Translational Sciences (NCATS), 2019):
Among all 400,000 compounds or so, about 5,500 (1.4%) were called active. The shares of active, inactive and inconclusive entries below differ from those in the screen. Calls follow the shape of the dose curve; as a rule, active = well fitted cell-killing curve with a large enough effect; inconclusive = small, poorly fitted or top-dose-only effect, or effect the other way; inactive = flat fitted curve, though single readings scatter. A potency beside an inconclusive call is a rough fit, not a confirmed value.

Assay: qHTS assay for MDR1-selective chemotherapeutics: Primary screen using the parental adenocarcinoma cell KB-3-1; also: nearly all actives have a fitted effect of over 60% in size
Settings: KB-3-1 viability, CellTiter-Glo ATP luminescence, 72 h; activity change, negative = cytotoxic: at 46.1 µM (top of the series)
Summary of the method: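 Using CellTiter-Glo luminescence, growth of non-resistant KB-3-1 adenocarcinoma cells is assessed 72 h after pin-tool compound addition at 37 °C. Normalized responses across the concentration series yield fitted curves.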
% is scaled to controls: 0 for no effect and ±100 for the full control effect; potency is read from the fitted curve at half-maximal effect.

| SMILES | Potency | activity change, negative = cytotoxic |
| --- | --- | --- |
| CC(=O)c1ccc(N2CCN(Cc3cc(=O)n4c(-c5ccccc5)csc4n3)CC2)cc1 | inactive | – |
| O=C(Cn1cnc2c(nnn2Cc2ccc(F)cc2)c1=O)Nc1ccccc1 | inactive | – |
| O=C(N/N=C/c1ccc([N+](=O)[O-])o1)c1ccc2c(c1)OCO2 | inconclusive: 25.9 µM [cytotoxic, single point] | – |
| Nc1[nH]c(C(=O)c2ccccc2)c(-c2ccccc2C(F)(F)F)c1C(=O)NCCc1c[nH]c2ccccc12 | inconclusive: 29.1 µM [cytotoxic, single point] | – |
| CCOc1cc(/C=N/NC(=O)c2cccnc2)cc(Br)c1OCC(N)=O | inconclusive: 14.6 µM [rising, single point] | – |
| CCOC(=O)c1[nH]c(C)c(CCC(=O)NCc2ccccc2Cl)c1C | inactive | – |
| CCCc1ccc(S(=O)(=O)N2CCC(Oc3ccc(-n4cnnn4)cc3)CC2)cc1 | inconclusive: 29.1 µM [cytotoxic, single point] | – |
| COc1ccc2o/c(=N/NC(=O)c3cccs3)c(C(N)=O)cc2c1 | inconclusive: 10.3 µM [rising, partial curve] | – |
| O=C(NCCc1ccccc1)C(=O)N/N=C/c1ccc2c(c1)OCO2 | inconclusive: 29.1 µM [cytotoxic, single point] | – |
| Cc1oc(-c2ccccc2Cl)nc1CN1CCCN(C(=O)c2ccco2)CC1 | inactive | – |
| CCC(C)Nc1ncnc2c1cnn2Cc1ccc(Cl)cc1 (stereo not given) | inconclusive: 29.1 µM [cytotoxic, single point] | – |
| CCCCC(CC)CNC(=O)C1CCC(CNS(=O)(=O)c2cccc3nsnc23)CC1 (stereo not given) | inconclusive: 18.4 µM [cytotoxic, partial curve, poor fit] | – |
| Nc1cc(=O)[nH]c(SCCSc2ccccc2)n1 | inconclusive: 1.46 µM [cytotoxic, full curve, poor fit] | – |
| COc1ccc(NC(=O)[C@H](C)NC(=O)C2CCN(S(=O)(=O)c3ccc(OC)cc3)CC2)cc1 | inactive | – |
| Cc1nc2ccccc2n1CCOc1ccc([N+](=O)[O-])cc1 | inactive | – |
| COCOCCn1cc(CN2CCS(=O)(=O)N(Cc3ccc(-c4ccc(Cl)c(Cl)c4)cc3)C(C(C)C)C2=O)nn1 (stereo not given) | inconclusive: 14.6 µM [cytotoxic, single point] | – |
| Cc1cccc(C)c1-n1ncc(C(=O)N2CCN(c3ccccn3)CC2)c1C1CCN(C(=O)OC(C)(C)C)CC1 | inactive | – |
| COC(=O)c1sc(NC(=O)CC(C)C)c(C(=O)OC)c1C | inconclusive: 18.4 µM [cytotoxic, single point] | – |
| OCCn1c(-c2ccccc2)csc1=Nc1ccccc1 | inconclusive: 20.6 µM [cytotoxic, single point] | – |
| COc1ccccc1NC(=O)N1CCc2[nH]c3ccc(Cl)cc3c2C1 | inconclusive: 23.1 µM [cytotoxic, single point] | – |
| CC(C)(C)CC(C)(C)NCC(O)COCCOc1ccc(Br)cc1 (stereo not given) | inconclusive: 20.6 µM [cytotoxic, single point] | – |
| O=C(Cc1cccc2ccccc12)N/N=C/C=C/c1cccc([N+](=O)[O-])c1 | inactive | – |
| CC(C)(C)[C@H]1COC(=O)[C@@H](Cc2ccc(F)cc2)C/C=C\C[C@@H](CC(=O)N[C@H](CO)Cc2ccccc2)C(=O)N1 | inactive | – |
| CC1CCCCN1C(=O)CCc1nnc(Cc2c[nH]c3ccccc23)o1 (stereo not given) | inconclusive: 9.2 µM [rising, partial curve, poor fit] | – |

Part of the list above, with each value named.
COc1ccccc1NC(=O)N1CCc2[nH]c3ccc(Cl)cc3c2C1
  Potency: inconclusive: 23.1 µM [cytotoxic, single point]
CC(C)(C)CC(C)(C)NCC(O)COCCOc1ccc(Br)cc1 (stereo not given)
  Potency: inconclusive: 20.6 µM [cytotoxic, single point]
O=C(Cc1cccc2ccccc12)N/N=C/C=C/c1cccc([N+](=O)[O-])c1
  Potency: inactive
CC(C)(C)[C@H]1COC(=O)[C@@H](Cc2ccc(F)cc2)C/C=C\C[C@@H](CC(=O)N[C@H](CO)Cc2ccccc2)C(=O)N1
  Potency: inactive

The list goes on:

| SMILES | Potency | activity change, negative = cytotoxic |
| --- | --- | --- |
| CC(C)(C)c1cc(C(=O)NNS(=O)(=O)c2ccccc2)n[nH]1 | – | inconclusive: -15.9% |
| Cc1nc2ccccc2c(=O)n1/N=C/c1cn[nH]c1-c1ccccc1 | inconclusive: 29.1 µM [rising, single point] | – |
| CCOc1cc(C(=O)N2CCC(c3ccncc3)CC2)cc(OCC)c1OCC | inactive | – |
| Cc1nn(Cc2ccc(C(=O)Nc3nccs3)cc2)c(C)c1Cl | active: 16.4 µM | – |
| CCCCN(c1ccccc1)S(=O)(=O)c1ccc2c(c1)CC(C)N2C(=O)C1CC1 (stereo not given) | inconclusive: 8.2 µM [cytotoxic, partial curve, poor fit] | – |
| O=C(NCC(=O)N1CCN(Cc2ccccc2)CC1)c1ccc(Cl)cc1 | inconclusive: 29.1 µM [cytotoxic, single point] | – |
| CCOC(=O)C(C#N)=C1CCC=C(C)C1 | inconclusive: 18.4 µM [rising, single point] | – |
| Cc1ccccc1N1CCN(c2ncnc3c2cnn3Cc2ccc(Cl)cc2)CC1 | active: 18.4 µM | – |
| CCCCSc1nc2sc3c(c2c(=O)n1-c1ccc(C)cc1)CCN(C)C3 | inconclusive: 23.1 µM [cytotoxic, single point] | – |
| COc1ccccc1N1CCN(Cc2cc3c(cc2Br)OCCO3)CC1 | inconclusive: 29.1 µM [cytotoxic, single point] | – |
| C=CCNC(=S)N/N=C(\C)c1ccccn1 | inconclusive: 0.259 µM [cytotoxic, full curve, poor fit] | – |
| O=C(C[n+]1cc(Br)cc(Br)c1)c1ccc(I)cc1 | – | inconclusive: 28.1% |
| CCOc1ccc(OCCC(=O)OCC(=O)NCCc2ccc(S(N)(=O)=O)cc2)cc1 | inconclusive: 0.82 µM [rising, full curve] | – |
| CCOC(=O)c1c(NC(=O)/C=C/C(=O)O)sc(C)c1-c1ccc(Cl)cc1 | inconclusive: 29.1 µM [cytotoxic, single point] | – |
| CCNC(=S)N(CCc1c(C)[nH]c2ccccc12)Cc1cc(OC)c(OC)c(OC)c1 | inconclusive: 29.1 µM [cytotoxic, single point] | – |
| O=C(Nc1ccc(F)c(Cl)c1)c1ccc2c(=O)n3c(nc2c1)CCCCC3 | inconclusive: 29.1 µM [cytotoxic, single point] | – |
| O=C(c1cccnc1)N1CCN(C/C=C/c2ccccc2)CC1 | inactive | – |
| Cc1nn(Cc2ccc(F)cc2)c(C)c1NC(=O)c1cc(-c2ccc3c(c2)OCO3)on1 | inconclusive: 14.6 µM [cytotoxic, partial curve] | – |
| CCc1ccc2nc(NC(=O)C3CCN(c4ncnc5sc(C)c(C)c45)CC3)sc2c1 | inactive | – |
| CC(C)N(CCC(=O)c1ccc2ccccc2c1)Cc1ccccc1 | inconclusive: 20.6 µM [cytotoxic, single point] | – |
| CCn1ccc2cc(S(=O)(=O)N3CCCN(C(=O)NCCOC)CC3)ccc21 | inactive | – |
| CCOc1ccccc1C1C2=C(COC2=O)Nc2cc3c(cc21)OCO3 (stereo not given) | active: 1.16 µM | – |
| CCOC(=O)/C=C1\CC(C(=O)OCC)Oc2ccccc21 (stereo not given) | inactive | – |
| O=C(CSCc1cccc(Br)c1)N/N=C/c1ccc2c(c1)OCO2 | active: 18.4 µM | – |

| SMILES | Potency | activity change, negative = cytotoxic |
| --- | --- | --- |
| COc1cc(C=NCc2ccccc2)ccc1O | inconclusive: 2.31 µM [rising, full curve] | – |
| CCOc1ccccc1NC(=O)CCCc1ccc(OC)c(C)c1 | inconclusive: 29.1 µM [cytotoxic, single point] | – |
| O=C1/C(=C/c2ccsc2)N2CCC1CC2 | inactive | – |
| O=C(c1ccc(F)cc1F)N1CCN(S(=O)(=O)c2ccc3c(c2)OCCO3)CC1 | inconclusive: 23.1 µM [cytotoxic, partial curve] | – |
| O=C1NC[C@H](CCCCN2C[C@@H](Cc3ccccc3)N(CCC3CCCCC3)C(=O)C2=O)N(CCC2CCCCC2)C1=O | inconclusive: 18.4 µM [cytotoxic, single point] | – |
| O=C(N/N=C/c1ccc([N+](=O)[O-])cc1)c1cc(C2CC2)nc2ccccc12 | inconclusive: 29.1 µM [cytotoxic, single point] | – |
| N#Cc1ccc(Nc2nc(-c3ccc(O)cc3O)cs2)cc1C(F)(F)F | inconclusive: 25.9 µM [cytotoxic, partial curve, poor fit] | – |
| C/C(=N\NC(=O)c1cccc(S(=O)(=O)N2CCCCC2)c1)c1ccc(C)o1 | inconclusive: 0.184 µM [cytotoxic, full curve] | – |
| Cc1cccc(OCc2nnc(SCC(=O)N3CCCC3)o2)c1 | inconclusive: 32.6 µM [rising, single point] | – |
| CC(=O)N1CCN(C(=O)c2cc(S(=O)(=O)N3CCCCC3)ccc2Cl)CC1 | inactive | – |
| CC(=O)NC(c1cccc(F)c1)c1nc(-c2csc3ccccc23)cs1 (stereo not given) | inconclusive: 20.6 µM [cytotoxic, single point] | – |
| CCNS(=O)(=O)c1ccc(CCC(=O)O)cc1 | inconclusive: 29.1 µM [rising, single point] | – |
| CCCC1=NN(c2ccc([N+](=O)[O-])cc2)C(=O)/C1=C\N(C)C | inactive | – |
| Cc1ccc(C(O)(C(=O)NNc2ccc3ccccc3n2)c2ccc(C)cc2)cc1 | inactive | – |
| Cc1cccc(C2=NN(c3ccccc3)[C@@H](C(=O)N3CCOC3=O)[C@@H]2c2ccc([N+](=O)[O-])cc2)c1 | inactive | – |
| CC(=O)c1cccc(NC(=O)c2ccc(Br)o2)c1 | inconclusive: 14.6 µM [rising, partial curve] | – |
| Cc1nn(Cc2ccccc2Cl)c2sc(C(=O)Nc3ccccc3N3CCOCC3)cc12 | inconclusive: 29.1 µM [cytotoxic, single point] | – |
| Nn1cnc2c(c1=O)C1(CCCCC1)Cc1ccccc1-2 | inconclusive: 7.31 µM [cytotoxic, partial curve, poor fit] | – |
| CCC(C(=O)NCc1ccccc1Cl)n1nc(C)c2sc3ccccc3c2c1=O (stereo not given) | inactive | – |
| Clc1ccc(OC2CCN(Cc3nc(CC4CC4)no3)CC2)cc1 | inconclusive: 14.6 µM [cytotoxic, partial curve, poor fit] | – |
| Cc1cccc(-n2ncc3c(NCc4ccccc4)ncnc32)c1 | active: 3.26 µM | – |
| Cc1cc(C)cc(NC(=O)CSCc2cc(=O)c3ccc(C)c(C)c3[nH]2)c1 | inactive | – |
